PubChem BioAssay AID1224830 – NIAID, 2016

Assay: 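Host factors that control LPS-induced TNF expression in human macrophages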 (primary screen)
Cell system: human THP-1 monocytic leukaemia cells, TNF dual-luciferase reporter clone, PMA-differentiated to macrophage-like cells
Reagents: siRNA pool against human genes, 50 nM
Duration: LPS for 4 h, given about 3 days after siRNA transfection
Treatment: bacterial LPS (TLR4 ligand), 10 ng/ml
Read-out: 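TNF firefly reporter luminescence divided by renilla, normalised to the plate median, then turned into a robust z-score for each replicate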
Scale: TNF reporter robust z-score: higher = stronger TNF reporter response to LPS
Hit rule: 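a well is active when its z-score exceeds 2.8 or falls below -1.5; control wells carry no call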
The deposit covers about 18,000 reagents; shown is a part drawn at random. About 2,900 of them (16%) were called active. 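Calls are made per well; low scores hint the gene aids the LPS response, high scores that it dampens it.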 Entries without a mark were called inactive. Repeated entries: four replicate wells of each siRNA pool. No sequences are given here.

gene	TNF reporter robust z-score
CX3CL1 (C-X3-C motif chemokine ligand 1)	-0.17
CX3CL1 (C-X3-C motif chemokine ligand 1)	-0.03
CX3CL1 (C-X3-C motif chemokine ligand 1)	-0.94
CX3CL1 (C-X3-C motif chemokine ligand 1)	0.36
NEDD4 (NEDD4 E3 ubiquitin protein ligase)	0.16
NEDD4 (NEDD4 E3 ubiquitin protein ligase)	-0.09
NEDD4 (NEDD4 E3 ubiquitin protein ligase)	-0.22
NEDD4 (NEDD4 E3 ubiquitin protein ligase)	-0.19
OR5W2 (olfactory receptor family 5 subfamily W member 2)	-1.78 (active)
OR5W2 (olfactory receptor family 5 subfamily W member 2)	-1.05
OR5W2 (olfactory receptor family 5 subfamily W member 2)	0.17
OR5W2 (olfactory receptor family 5 subfamily W member 2)	-0.27
HEMK1	-0.1
HEMK1	-0.32
HEMK1	-0.36
HEMK1	0.3
CD5L (CD5 molecule like)	-1.01
CD5L (CD5 molecule like)	-0.24
CD5L (CD5 molecule like)	-0.66
LRIF1 (ligand dependent nuclear receptor interacting factor 1)	-1.23
LRIF1 (ligand dependent nuclear receptor interacting factor 1)	-0.82
LRIF1 (ligand dependent nuclear receptor interacting factor 1)	-1.46
LRIF1 (ligand dependent nuclear receptor interacting factor 1)	-1.4
IFTAP (intraflagellar transport associated protein)	-0.01
IFTAP (intraflagellar transport associated protein)	-0.42
IFTAP (intraflagellar transport associated protein)	0.76
IFTAP (intraflagellar transport associated protein)	0.27
RPS6KB2 (ribosomal protein S6 kinase B2)	0.9
RPS6KB2 (ribosomal protein S6 kinase B2)	-0.07
RPS6KB2 (ribosomal protein S6 kinase B2)	0.21
RPS6KB2 (ribosomal protein S6 kinase B2)	0.89
VAX1 (ventral anterior homeobox 1)	-0.34
VAX1 (ventral anterior homeobox 1)	0.91
VAX1 (ventral anterior homeobox 1)	1.74
VAX1 (ventral anterior homeobox 1)	-1.09
KLHDC8B (kelch domain containing 8B)	-1.31
KLHDC8B (kelch domain containing 8B)	-0.44
KLHDC8B (kelch domain containing 8B)	-0.19
KLHDC8B (kelch domain containing 8B)	-0.77
CD34 (CD34 molecule)	-0.27
CD34 (CD34 molecule)	0
CD34 (CD34 molecule)	-0.85
CD34 (CD34 molecule)	-0.17
PGLYRP1 (peptidoglycan recognition protein 1)	-0.22
PGLYRP1 (peptidoglycan recognition protein 1)	-0.19
PGLYRP1 (peptidoglycan recognition protein 1)	0.17
PGLYRP1 (peptidoglycan recognition protein 1)	0.13
SPOCK2	-0.09
SPOCK2	0.22
SPOCK2	0.93
SPOCK2	1.1
SRSF9 (serine and arginine rich splicing factor 9)	0.36
SRSF9 (serine and arginine rich splicing factor 9)	-0.3
SRSF9 (serine and arginine rich splicing factor 9)	-0.29
SRSF9 (serine and arginine rich splicing factor 9)	-0.08
LRP6 (LDL receptor related protein 6)	1.42
LRP6 (LDL receptor related protein 6)	1.17
LRP6 (LDL receptor related protein 6)	1.78
LRP6 (LDL receptor related protein 6)	2.18
NUDT3 (nudix hydrolase 3)	-0.7
NUDT3 (nudix hydrolase 3)	1.26
NUDT3 (nudix hydrolase 3)	0.58
NUDT3 (nudix hydrolase 3)	-0.74
SCTR (secretin receptor)	3.13 (active)
SCTR (secretin receptor)	2.07
SCTR (secretin receptor)	1.77
SCTR (secretin receptor)	-0.8
SYT11 (synaptotagmin 11)	-0.58
SYT11 (synaptotagmin 11)	-0.81
SYT11 (synaptotagmin 11)	-0.12
SYT11 (synaptotagmin 11)	0.13
OLA1 (Obg like ATPase 1)	0.6
OLA1 (Obg like ATPase 1)	0.66
OLA1 (Obg like ATPase 1)	0.46
OLA1 (Obg like ATPase 1)	1.88

Reformatted: 8 of the entries above
{"gene":"OR5W2 (olfactory receptor family 5 subfamily W member 2)","TNF reporter robust z-score":-1.05}
{"gene":"OR5W2 (olfactory receptor family 5 subfamily W member 2)","TNF reporter robust z-score":0.17}
{"gene":"OR5W2 (olfactory receptor family 5 subfamily W member 2)","TNF reporter robust z-score":-0.27}
{"gene":"HEMK1","TNF reporter robust z-score":-0.1}
{"gene":"HEMK1","TNF reporter robust z-score":-0.32}
{"gene":"HEMK1","TNF reporter robust z-score":-0.36}
{"gene":"HEMK1","TNF reporter robust z-score":0.3}
{"gene":"CD5L (CD5 molecule like)","TNF reporter robust z-score":-1.01}
